PMC6379952
Results are given in words; binding and its absence hold for the method and conditions named. Binding seen in cells or lysates may run through a third protein. Some binding calls cover weakened binding; strength is not graded here.

By UniProt entry, the sequences of proteins in these tests, tags left out.
UniProt P84077: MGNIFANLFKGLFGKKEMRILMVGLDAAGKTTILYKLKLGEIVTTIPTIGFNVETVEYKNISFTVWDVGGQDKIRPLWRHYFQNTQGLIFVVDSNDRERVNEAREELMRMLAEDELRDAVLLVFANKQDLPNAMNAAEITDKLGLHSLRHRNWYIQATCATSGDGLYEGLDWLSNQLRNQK

Molecular target: epidermal growth factor receptor (human (endogenous in HN12)) (UniProt P00533)
Test: co-IP; 500 ug HN12 cell lysate in IP lysis buffer (20 mM Tris-HCl pH 8.0, 137 mM NaCl, 2 mM EDTA, 1% Nonidet P-40, protease and phosphatase inhibitors), antibody overnight at 4 C, Protein A/G Sepharose 4 h; preimmune IgG as negative control; also cells treated with 5 uM erlotinib (decreased Arf1 in the EGFR immunocomplex)

ADP-ribosylation factor 1 (from UniProt P84077 1-181)
binding: binds
